According to paper PMC4639896:

Biological target: T1, ABI5 (UniProt Q9SJN0)
T1 sequence (looked up, limits assumed): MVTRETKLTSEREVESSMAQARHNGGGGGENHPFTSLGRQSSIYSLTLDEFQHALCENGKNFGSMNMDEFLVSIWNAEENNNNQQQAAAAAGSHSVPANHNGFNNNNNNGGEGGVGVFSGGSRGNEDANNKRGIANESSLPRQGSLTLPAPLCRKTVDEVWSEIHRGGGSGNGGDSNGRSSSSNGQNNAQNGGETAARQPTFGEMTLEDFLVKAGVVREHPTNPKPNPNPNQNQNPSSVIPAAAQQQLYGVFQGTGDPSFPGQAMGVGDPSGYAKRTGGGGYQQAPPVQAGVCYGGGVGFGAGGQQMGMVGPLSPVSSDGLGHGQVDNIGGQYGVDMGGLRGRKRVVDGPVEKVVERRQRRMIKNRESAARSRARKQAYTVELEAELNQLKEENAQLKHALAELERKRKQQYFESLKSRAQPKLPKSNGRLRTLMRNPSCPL
Assay: EMSA
Details: 10 mM Tris pH 8, 1 mM EDTA, 100 mM NaCl, 2 mM DTT (reducing), 10% glycerol, 0.5 ug poly(dI-dC), BSA, 10 ng probe, 1.5 ug protein, 30 min on ice, 6% PAGE 0.5x TBE, recombinant protein, protein details: N-terminal 6xHis (pET-28a+), label: biotin

Measured: binding result

GATCCTCTCGCGTACAATAAAGTCAGACACGTGGCATGTCACCAACGTAGCGTATGCGTA (double strand) [ABRE probe]
binds: non-reducing, 1 mM GSNO (S-nitrosylation) | non-reducing, no GSNO | reducing conditions (DTT)

Construct, isoform or probe ends are uncertain for at least one entry. At least one verdict rests on a figure or table, not on a statement of the authors. Protein sequences can lack the tags named with them.
